The target of the test is T1, purified recombinant N-terminally His-tagged rubisco activase (rRCA) (Arabidopsis thaliana) (UniProt P10896).
T1 sequence: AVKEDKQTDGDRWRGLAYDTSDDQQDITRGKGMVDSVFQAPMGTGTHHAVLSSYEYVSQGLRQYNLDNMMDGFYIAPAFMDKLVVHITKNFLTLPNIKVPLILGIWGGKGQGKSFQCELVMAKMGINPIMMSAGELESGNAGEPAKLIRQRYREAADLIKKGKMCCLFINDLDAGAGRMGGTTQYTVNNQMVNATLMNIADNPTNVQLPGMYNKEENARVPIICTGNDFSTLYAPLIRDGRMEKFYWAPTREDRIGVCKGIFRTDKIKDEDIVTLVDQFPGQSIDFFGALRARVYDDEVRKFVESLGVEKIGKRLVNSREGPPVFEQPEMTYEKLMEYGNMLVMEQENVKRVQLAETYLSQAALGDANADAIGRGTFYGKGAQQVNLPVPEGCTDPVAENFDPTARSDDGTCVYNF
As to the kind of experiment: SPR; His-tagged rRCA immobilised on an NTA sensor chip, pAtPNP-A or pScr injected at the same concentration, unmodified reference surface; Biacore T100, 20 °C; both purified.

Results are given in words; binding and its absence hold for the method and conditions named. Some binding calls cover weakened binding; strength is not graded here. Where a sequence is shown, tags or fusion partners need not be part of it.

B1: pAtPNP-A, N-terminally biotinylated AtPNP-A(33–66) peptide containing the active region of AtPNP-A (peptide, UniProt Q9ZV52 33-66)
peptide: YDPPYTRSACYGTQRETLVVGVKNNLWQNGRACG
modifications: biotin on the N-terminus; two cysteine residues forming a disulfide bond
For the molecule B1, the binding result was “binds”.

Values taken from paper PMC7823470, “Arabidopsis Plant Natriuretic Peptide Is a Novel Interactor of Rubisco Activase” (Life, 2020).
